The values that follow come from publication PMC5416842, “The ribosome biogenesis factor yUtp23/hUTP23 coordinates key interactions in the yeast and human pre-40S particle and hUTP23 contains an essential PIN domain” (Nucleic Acids Research, 2017).

Changes are numbered by the printed parent chain. For part of these data: No signal at the amounts used counts as a negative. Where a protein sequence is shown, tags need not be part of it. The comparison behind a weaker result is the experiment's own reference, which may not be listed here. For part of these data: Construct, isoform or probe ends are uncertain for at least one entry.

The target of data set [1] is T1, GST-yUtp23 WT (Saccharomyces cerevisiae) (UniProt Q12339).
T1 sequence (looked up): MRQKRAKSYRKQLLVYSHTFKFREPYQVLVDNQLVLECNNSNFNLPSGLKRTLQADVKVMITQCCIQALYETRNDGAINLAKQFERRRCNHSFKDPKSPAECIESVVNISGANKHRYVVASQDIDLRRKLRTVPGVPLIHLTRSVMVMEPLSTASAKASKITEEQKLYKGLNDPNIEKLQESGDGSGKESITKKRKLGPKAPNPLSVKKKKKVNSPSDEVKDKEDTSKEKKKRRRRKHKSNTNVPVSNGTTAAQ
Briefly: EMSA. Particulars: EMSA: 10 mM Tris/HCl pH 7.6, 75 mM NaCl, 2 mM DTT, 100 ng/ul BSA, 0.8 U/ul RNasin, 4.5% glycerol, 0.05% Tween20, 500 ng/ul E. coli tRNA, 10 min 30 C then 10 min on ice, recombinant protein, residues 1-254, protein details: N-terminal GST (pGEX-6P1), probe letters rebuilt from the primers and the genome.

The target of data set [2] is T2, GST-yUtp23 C102A (Saccharomyces cerevisiae) (UniProt Q12339).
T2 sequence (looked up): T1 sequence (looked up) with C102A
Briefly: EMSA. The conditions noted are these: 250 and 2500 nM, unresolved, likely non-specific complexes at high concentration; EMSA: 10 mM Tris/HCl pH 7.6, 75 mM NaCl, 2 mM DTT, 100 ng/ul BSA, 0.8 U/ul RNasin, 4.5% glycerol, 0.05% Tween20, 500 ng/ul E. coli tRNA; 10 min 30 C then 10 min on ice; recombinant protein; residues 1-254; protein details: N-terminal GST (pGEX-6P1); label: 32P-UTP body; probe letters rebuilt from the primers and the genome.

For “GGAACCAUAGUCUCGUGCUAGUUCGGUACUAUACAGGGAAGGGAAGUCACUCGCAUACGUGUGUGUGCAUUUCUUGCUAUUGCUGCUUAGCUUCUCUAAAACACUGGGCUAGCGUUUUUCAACGCUCGAGAGGCAGAGUCUCAAGGAGCCUCCAAUGGGCCUCACGUAUUCAUCUAGAUGGCGCUUCGGACAACGGCAUCACAUAAGAGAUGCAGCUCCUGACUUCUCCUCUGAUCUUCGUGAUCAGAGUUUUGAGUCGUCAGACUACGAGCAGUUUCUCUUAGUCGUUGCAUCGGGUGCUGUUGCCUUAACGAUGUGUAUAUGGGGUUCGGGGGCUGUUGCCAUGAUAUAUAUGGAUGAGACAGAAGUGGCCCCGUUGACGAGUUUAACUUAGAUUAACGCAGUAUAUUCCUAAACACUAUGAAAUGACCCUAGUUGGUCCAUGAUCAUUUGGGUAAAACCAUACUGCAGACAUCU [snR30 FL deltaIH]”, the binding result in data set [1] (1300 nM protein, severely reduced, label: 32P-UTP body) is given as “binds more weakly”.

Consider “GGAACCAUAGUCUCGUGCUAGUUCGGUACUAUACAGGGAAGGGAAGUCACUCGCAUACGUGUGUGUGCAUUUCUUGCUAUUGCUGCUUAGCUUCUCUAAAACACUGGGCUAGCGUUUUUCAACGCUCGAGAGGCAGAGUCUCAAGGAGCCUCCAAUGGGCCUCACGUAUUCAUCUAGAUGGCGCUUCGGACAACGGCAUCACAUAAGAGAUGCAGCUCCUGACUUCUCCUCUGAUCUUCGUGAUCAGAGUUUUGAGUCGUCAGACUACGAGCAGUUUCUCUUAGUCGUUGCAUCGGGUGCUGUUGCCUUAACGAUGUGUAUAUGGGGUUCGGGGGCUGUUGCCAUGAUAUAUAUGGAUGAGACAGAAGUGGCCCCGUUGACGAGUUUAACUUAGAUUAAG [snR30 5' hairpin (nt 1-398)]”, for which the binding result in data set [1] (1300 nM protein, label: 32P-UTP body) is listed as “no binding”.

For “GGAACCAUAGUCUCGUGCUAGUUCGGUACUAUACAGGGAAGGGAAGUCACUCGCAUACGUGUGUGUGCAUUUCUUGCUAUUGCUGCUUAGCUUCUCUAAAACACUGGGCUAGCGUUUUUCAACGCUCGAGAGGCAGAGUCUCAAGGAGCCUCCAAUGGGCCUCACGUAUUCAUCUAGAUGGCGCUUCGGACAACGGCAUCACAUAAGAGAUGCAGCUCCUGACUUCUCCUCUGAUCUUCGUGAUCAGAGUUUUGAGUCGUCAGACUACGAGCAGUUUCUCUUAGUCGUUGCAUCGGGUGCUGUUGCCUUAACGAUGUGUAUAUGGGGUUCGGGGGCUGUUGCCAUGAUAUAUAUGGAUGAGACAGAAGUGGCCCCGUUGACGAGUUUAACUUAGAUUAAGUAGGACGCAUGAUCUUGAGCUCUUUUCCUAUACUUUGUCCUAUGGCCAGCUUUCUCCUUAUUACGAAGAGAUUGCGGGAUGUGGGUGCAGAGUGGGAAAAUCUGAGUUCGGUCAUCUUUGUUGUUCGUCCUAC [snR30 nt 1-531 (5' HP + IH)]”, in data set [1] (1300 nM protein, binding restored, label: 32P-UTP body), the binding result is given as “binds”.

Regarding “GGAACCAUAGUCUCGUGCUAGUUCGGUACUAUACAGGGAAGGGAAGUCACUCGCAUACGUGUGUGUGCAUUUCUUGCUAUUGCUGCUUAGCUUCUCUAAAACACUGGGCUAGCGUUUUUCAACGCUCGAGAGGCAGAGUCUCAAGGAGCCUCCAAUGGGCCUCACGUAUUCAUCUAGAUGGCGCUUCGGACAACGGCAUCACAUAAGAGAUGCAGCUCCUGACUUCUCCUCUGAUCUUCGUGAUCAGAGUUUUGAGUCGUCAGACUACGAGCAGUUUCUCUUAGUCGUUGCAUCGGGUGCUGUUGCCUUAACGAUGUGUAUAUGGGGUUCGGGGGCUGUUGCCAUGAUAUAUAUGGAUGAGACAGAAGUGGCCCCGUUGACGAGUUUAACUUAGAUUAAGUAGGACGCAUGAUCUUGAGCUCUUUUCCUAUACUUUGUCCUAUGGCCAGCUUUCUCCUUAUUACGAAGAGAUUGCGGGAUGUGGGUGCAGAGUGGGAAAAUCUGAGUUCGGUCAUCUUUGUUGUUCGUCCUACCGCAGUAUAUUCCUAAACACUAUGAAAUGACCCUAGUUGGUCCAUGAUCAUUUGGGUAAAACCAUACUGCAGACAUCU [snR30 full length (nt 1-606)]”, the binding result in data set [2] is recorded as “binds more weakly”. Besides, the Kd in data set [1] (100-1000 nM protein, label: 32P-UTP body) was found to be 300 nM.

“GGCGUAUUGCUCGAAUAUAUUAGCAUGGAAUAAUAGAAUAGGACGUUUGGUUCUAUUUUGUUGGUUUCUAGGACCAUCGUAAUGAUUAAUAGGGACGGUCGGGGGCAUCAGUAUUCAAUUGUCAGAGGUGAAAUUCUUGGAUUUAUUGAAGACUAACUACUGCGAAAGCAUUUGCCAAGGACGUUUUCA [18S rRNA ES6 fragment (nt 775-963, RNA A)]”: the binding result in data set [1] (5000 nM protein, very low efficiency, label: 32P-UTP body (unlabelled as competitor)) was “binds more weakly”.
